Results are given in words; binding and its absence hold for the method and conditions named. In cells and extracts the contact can be indirect. A yes stands for co-enrichment or nearness to the bait. Other partners may have been found.
Target: FLAG-Gαi3
Test: affinity purification with mass spectrometry; SILAC-labelled HEK293 cells stably expressing FLAG-Gαi3 and mycKOR, treated 5.5 h with vehicle or norBNI (10 µM); solubilized in 1% digitonin in coIP buffer; anti-FLAG agarose overnight at 4 °C, eluted with 3xFLAG peptide; specificity control with excess FLAG peptide

binding: binds
B1: peroxiredoxin 6 (PRDX6) (enzyme, UniProt P30041 1-224)
chain: MPGGLLLGDVAPNFEANTTVGRIRFHDFLGDSWGILFSHPRDFTPVCTTELGRAAKLAPEFAKRNVKLIALSIDSVEDHLAWSKDINAYNCEEPTEKLPFPIIDDRNRELAILLGMLDPAEKDEKGMPVTARVVFVFGPDKKLKLSILYPATTGRNFDEILRVVISLQLTAEKRVATPVDWKDGDSVMVLPTIPEEEAKKLFPKGVFTKELPSGKKYLRYTPQP
